Test results: patent US20060275211A1
No constants are given. Whether binding was seen depends on the method and setting. Some entries that bind do so weakly or less than the wild type.

Sequences of proteins named here, by UniProt entry; tags and fusion partners are left off. A change or cut given only in a name is not applied to a line headed by its entry.
UniProt O14638: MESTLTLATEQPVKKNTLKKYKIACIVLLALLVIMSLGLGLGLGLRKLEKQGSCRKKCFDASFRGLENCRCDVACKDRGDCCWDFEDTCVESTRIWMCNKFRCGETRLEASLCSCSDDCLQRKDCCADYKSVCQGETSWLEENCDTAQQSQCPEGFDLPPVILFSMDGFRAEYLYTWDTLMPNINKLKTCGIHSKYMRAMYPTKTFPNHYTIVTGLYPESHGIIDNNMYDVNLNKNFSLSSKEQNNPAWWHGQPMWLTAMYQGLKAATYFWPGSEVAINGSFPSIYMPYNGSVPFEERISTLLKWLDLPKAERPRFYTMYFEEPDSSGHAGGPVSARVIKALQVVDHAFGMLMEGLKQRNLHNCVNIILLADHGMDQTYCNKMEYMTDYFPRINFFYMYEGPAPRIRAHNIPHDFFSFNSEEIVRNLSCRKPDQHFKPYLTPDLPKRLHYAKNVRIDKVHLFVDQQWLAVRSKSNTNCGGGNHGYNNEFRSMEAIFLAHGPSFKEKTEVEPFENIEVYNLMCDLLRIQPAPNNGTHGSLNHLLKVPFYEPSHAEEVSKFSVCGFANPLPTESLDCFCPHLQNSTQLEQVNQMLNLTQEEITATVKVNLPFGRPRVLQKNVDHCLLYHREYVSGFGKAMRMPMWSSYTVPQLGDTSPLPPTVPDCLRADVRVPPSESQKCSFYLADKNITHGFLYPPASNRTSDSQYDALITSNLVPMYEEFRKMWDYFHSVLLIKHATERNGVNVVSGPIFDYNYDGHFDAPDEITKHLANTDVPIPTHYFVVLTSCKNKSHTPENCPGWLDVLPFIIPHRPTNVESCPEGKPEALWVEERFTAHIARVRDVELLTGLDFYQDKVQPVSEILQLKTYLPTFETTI
UniProt Q6DYE8: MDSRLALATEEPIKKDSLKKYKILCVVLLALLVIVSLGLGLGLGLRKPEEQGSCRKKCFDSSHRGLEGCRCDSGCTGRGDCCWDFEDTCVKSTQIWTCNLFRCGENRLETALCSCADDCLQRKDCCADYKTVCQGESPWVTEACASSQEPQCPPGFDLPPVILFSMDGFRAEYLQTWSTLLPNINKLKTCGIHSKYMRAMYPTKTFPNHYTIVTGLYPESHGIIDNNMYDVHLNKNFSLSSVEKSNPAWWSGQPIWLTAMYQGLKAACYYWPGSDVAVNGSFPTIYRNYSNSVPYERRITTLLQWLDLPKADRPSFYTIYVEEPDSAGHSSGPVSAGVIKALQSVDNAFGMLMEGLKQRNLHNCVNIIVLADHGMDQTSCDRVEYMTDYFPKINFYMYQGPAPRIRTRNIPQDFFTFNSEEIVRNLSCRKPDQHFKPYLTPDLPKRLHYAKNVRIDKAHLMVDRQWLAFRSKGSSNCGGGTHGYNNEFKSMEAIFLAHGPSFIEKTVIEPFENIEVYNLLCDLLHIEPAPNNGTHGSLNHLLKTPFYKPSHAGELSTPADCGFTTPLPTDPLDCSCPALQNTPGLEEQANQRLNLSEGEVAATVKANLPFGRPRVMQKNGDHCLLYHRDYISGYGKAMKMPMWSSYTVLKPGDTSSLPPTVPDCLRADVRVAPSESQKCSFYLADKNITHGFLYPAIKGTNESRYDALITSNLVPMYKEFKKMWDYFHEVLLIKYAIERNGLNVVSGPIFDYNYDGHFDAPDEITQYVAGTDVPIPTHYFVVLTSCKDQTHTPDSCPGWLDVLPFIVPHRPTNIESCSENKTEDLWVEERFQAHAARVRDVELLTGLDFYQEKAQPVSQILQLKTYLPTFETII

Experiments:
[1] = target: 161P2F10B protein (human), expressed on the cell surface (human) (UniProt O14638); assay: FACS: Caki-161P2F10B cells (open line) vs Caki Neo cells (filled), anti-hIgG-PE
[2] = target: 161P2F10B protein (human), expressed on the cell surface (human) (UniProt O14638); assay: FACS on CAKI-161P2F10B and UG-K3 cells (FIG. 6 and FIG. 7)
[3] = target: 161P2F10B protein (human), expressed on the cell surface (human) (UniProt O14638); assay: flow cytometry on cells or ELISA on immobilized 161P2F10B
[4] = target: 161P2F10B protein (human), expressed on the cell surface (human) (UniProt O14638); assay: FACS on UG-K3 cells (open line) vs filled negative-control histogram, anti-hIgG-PE
[5] = target: 161P2F10B protein (human), expressed on the cell surface (human) (UniProt O14638); assay: FACS on UG-K3 cells, biotinylated MAb, streptavidin-PE; buffer rows of the competition table
[6] = target: mouse 161P2F10B expressed on 293T cells (mouse) (UniProt Q6DYE8); assay: FACS: 293T-mouse 161P2F10B cells (open line) vs 293T-neo cells (filled), MAb 2 µg/mL, anti-hIgG-PE

Measured: binding

B1: H16-1(3,5)5 (antibody, V domains shown)
VH: EVQLVQSGAEVKKPGESLKISCKGSGYRFTSYWIGWVRQMPGKGLEWMGIIYPGDSDTRYSPSFQGQVTISADKSISTAYLQWSSLKASDTAMYYCARKDYYYYTMDVWGQGTTVTVSS
VL: QSALTQPASVSGSPGQSITISCTGTSSDVGGYNYVSWYQQHPGKAPKLMIYAVSNRPSGVSNRFSGSKSGNTASLTISGLQAEDEADYYCSSYTISRILVVFGGGTKLTVLG
not listed: [6]
binds: all other assays above

B2: Ha16-1(3,5)27.1 (antibody, V domains shown)
VH: LVESGAEVKKPGESLKISCKGSGYRFTSYWIGWVRQMPGKGLEWMGIIYPGDSDTRYSPSFQGQVTISADKSISTAYLQWSSLKASDTAMYYCARKDYYYYSMDVWGQGTTVTVSS
VL: GQSALTQPASVSGSPGQSITISCTGTSSDVGGYNYVSWYQQHPGQAPKLLIYGVNIRPSGVSTRFSGSKSGNTASLTISGLQAEDEADYYCSSYTRSSILVVFAGGTKLTVLG
binds: [1] | [2] | [3] | [4]

B3: H16-9.10 (antibody, V domains shown)
VH: LLESGPGLVKPSQTLSLTCAISGDSVSSNSAAWNWIRQSPSRGLEWLGRTYYRSKWYNAYAVSVKSRMTINPDTSKNQFSLQLNSVTPEDTAVYYCAREAGGWFDPWGQGTLVTVSS
VL: DIQMTQSPSSVSASVGDRVTITCRASQGIRSWLAWYQQKPGKAPKLLIYAASSLQSGVPSRFSGSGSGTDFTLTISSLQPEDFATYYCQQANSFPPTFGGGTKVEIKR
binds: [1] | [2] | [3] | [4]

B4: H16-9.33 (antibody, V domains shown)
VH: EVQLLESGPGLVKPSQTLSLTCAISGDSVSSNSAAWNWIRQSPSRGLEWLGRTYYRSKYYNAYPVSVKSRITINPDTSKNQFSLQLNSVTPEDTAVYYCAREAGGWFDPWGQGTLVTVSS
VL: DIQMTQSPSSVSASVGDRVTITCRANQGIRSWLAWYQQKPGKAPKLLIYAASSLQSGVPSRFSGSGSGTDFTLTISSLQPEDFATYYCQQANSFPPTFGGGTKVEIKR
binds: [2] | [3] | [6]
